No constants are given. Whether binding was seen depends on the method and setting. Some binding calls cover weakened binding; strength is not graded here.
Experiments:
[1] = molecular target: fibrillar Aβ peptide deposits (amyloid plaques and vascular amyloid) in brain sections (human) (UniProt P05067); assay: immunohistochemistry, image analysis of plaque optical density
[2] = molecular target: Aβ(1-42) globulomer (human) (UniProt P05067); assay: dot blot immunoassay
Aβ(1-42) fibrils (human) = Aβ(1-42) fibrils (human) (UniProt P05067); assay: co-sedimentation with Aβ(1-42) fibrils, Coomassie SDS-PAGE
[3] = molecular target: fibrillar Aβ peptide deposits (amyloid plaques and vascular amyloid) in brain sections (human) (UniProt P05067); assay: immunohistochemistry on neocortex sections of AD patients and Tg2576 mice
[4] = molecular target: Aβ(1-42) globulomer (human) (UniProt P05067); assay: native PAGE Western blot
[5] = molecular target: Aβ(1-42) globulomer (human) (UniProt P05067); assay: dot blot

Sequences of proteins named here, by UniProt entry; tags and fusion partners are left off. Residues count along the entry.
UniProt P05067, residues 672-713: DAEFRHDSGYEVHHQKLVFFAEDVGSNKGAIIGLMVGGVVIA

Measured: binding

B1: monoclonal antibody 8F5 (antibody, V domains shown)
VH: EVQLVESGGGLVQPGGSLKLSCAASGFTFSSYGMSWVRQTPDKRLELVASINSNGGSTYYPDSVKGRFTISRDNAKNTLYLQMSSLKSEDTAMYYCASGDYWGQGSTLTVSS
VL: DVVMTQTPLSLPVSLGDQASISCRSSQSLVYSNGDTYLHWYLQKPGQSPKLLIYKVSNRFSGVPDRFSGSGSGTDFTLKISRVEAEDLGVYFCSQSTHVPWTFGGGTKLEIKR
binds: all assays above

B2: monoclonal antibody 8C5 (antibody, V domains shown)
VH: EVQLVESGGGLVQPGGSLKLSCTASGFTFSSYGMSWVRQTPDKRLELVASIKNNGGSTYYPDSLKGRFTISRDNAKNTLYLQMSSLKSEDTAMYYCASGDYWGQGTTLTVSS
VL: DVVMTQTPLSLPVSLGDQASISCRSSQSLVHSNGDTFLHWYLQKPGQSPKLLIYKVSNRFSGVPDRFSGSGSGTDFTLKISRVEAEDLGIYFCSQSIHVPWTFGGGTKLEIKR
binds: [1] | [3] | [5]
